These compounds were tested on T1, Purified tubulin (alpha/beta-tubulin heterodimer; taxane site of beta-tubulin) (assay: DAPI fluorescence tubulin polymerization assay). Conditions: 50 µM; 50 µM compound, 1 mM GTP, pH 6.9, 37 °C, 30 min; 100% = 10 µM paclitaxel.
T1 construct: gene TUBB; mixed isotypes
Type: biochemical
Source text: DAPI fluorescence tubulin polymerization assay on Purified tubulin (alpha/beta-tubulin heterodimer; taxane site of beta-tubulin)

Question: `CCC(=C(c1ccc(O)cc1)c1ccc(O)cc1)c1cccc(Nc2cccc3ccccc23)c1` [compound 3, 5C6] was tested. Which “In vitro polymerization^a / MEP (%)” value did it give?
Answer: 26.7%

Question: `O=C(c1ccc(OCCN2CCCCC2)cc1)c1c(-c2ccc(O)cc2)sc2cc(O)ccc12` [compound 7, RAL] was tested. Which “In vitro polymerization^a / MEP (%)” value did it give?
Answer: 34.5%

Question: `Oc1ccc2c(c1)CC[C@H](c1ccccc1)[C@@H]2c1ccc(OCCN2CCCC2)cc1` [compound 13, LAS] was tested. Which “In vitro polymerization^a / MEP (%)” value did it give?
Answer: 23.5%

Source: article PMC6399299, “Pocket similarity identifies selective estrogen receptor modulators as microtubule modulators at the taxane site” (Nature Communications, 2019)
